Test results published in paper PMC5372545.
These are yes or no findings as the source states them, for the method shown. In cells and extracts the contact can be indirect. Some results given as binding are weak or reduced against the parent protein; the word gives no strength. Sequences can lack the tags named with a protein.

Sequences of proteins named here, by UniProt entry; tags and fusion partners are left off.
UniProt P21333: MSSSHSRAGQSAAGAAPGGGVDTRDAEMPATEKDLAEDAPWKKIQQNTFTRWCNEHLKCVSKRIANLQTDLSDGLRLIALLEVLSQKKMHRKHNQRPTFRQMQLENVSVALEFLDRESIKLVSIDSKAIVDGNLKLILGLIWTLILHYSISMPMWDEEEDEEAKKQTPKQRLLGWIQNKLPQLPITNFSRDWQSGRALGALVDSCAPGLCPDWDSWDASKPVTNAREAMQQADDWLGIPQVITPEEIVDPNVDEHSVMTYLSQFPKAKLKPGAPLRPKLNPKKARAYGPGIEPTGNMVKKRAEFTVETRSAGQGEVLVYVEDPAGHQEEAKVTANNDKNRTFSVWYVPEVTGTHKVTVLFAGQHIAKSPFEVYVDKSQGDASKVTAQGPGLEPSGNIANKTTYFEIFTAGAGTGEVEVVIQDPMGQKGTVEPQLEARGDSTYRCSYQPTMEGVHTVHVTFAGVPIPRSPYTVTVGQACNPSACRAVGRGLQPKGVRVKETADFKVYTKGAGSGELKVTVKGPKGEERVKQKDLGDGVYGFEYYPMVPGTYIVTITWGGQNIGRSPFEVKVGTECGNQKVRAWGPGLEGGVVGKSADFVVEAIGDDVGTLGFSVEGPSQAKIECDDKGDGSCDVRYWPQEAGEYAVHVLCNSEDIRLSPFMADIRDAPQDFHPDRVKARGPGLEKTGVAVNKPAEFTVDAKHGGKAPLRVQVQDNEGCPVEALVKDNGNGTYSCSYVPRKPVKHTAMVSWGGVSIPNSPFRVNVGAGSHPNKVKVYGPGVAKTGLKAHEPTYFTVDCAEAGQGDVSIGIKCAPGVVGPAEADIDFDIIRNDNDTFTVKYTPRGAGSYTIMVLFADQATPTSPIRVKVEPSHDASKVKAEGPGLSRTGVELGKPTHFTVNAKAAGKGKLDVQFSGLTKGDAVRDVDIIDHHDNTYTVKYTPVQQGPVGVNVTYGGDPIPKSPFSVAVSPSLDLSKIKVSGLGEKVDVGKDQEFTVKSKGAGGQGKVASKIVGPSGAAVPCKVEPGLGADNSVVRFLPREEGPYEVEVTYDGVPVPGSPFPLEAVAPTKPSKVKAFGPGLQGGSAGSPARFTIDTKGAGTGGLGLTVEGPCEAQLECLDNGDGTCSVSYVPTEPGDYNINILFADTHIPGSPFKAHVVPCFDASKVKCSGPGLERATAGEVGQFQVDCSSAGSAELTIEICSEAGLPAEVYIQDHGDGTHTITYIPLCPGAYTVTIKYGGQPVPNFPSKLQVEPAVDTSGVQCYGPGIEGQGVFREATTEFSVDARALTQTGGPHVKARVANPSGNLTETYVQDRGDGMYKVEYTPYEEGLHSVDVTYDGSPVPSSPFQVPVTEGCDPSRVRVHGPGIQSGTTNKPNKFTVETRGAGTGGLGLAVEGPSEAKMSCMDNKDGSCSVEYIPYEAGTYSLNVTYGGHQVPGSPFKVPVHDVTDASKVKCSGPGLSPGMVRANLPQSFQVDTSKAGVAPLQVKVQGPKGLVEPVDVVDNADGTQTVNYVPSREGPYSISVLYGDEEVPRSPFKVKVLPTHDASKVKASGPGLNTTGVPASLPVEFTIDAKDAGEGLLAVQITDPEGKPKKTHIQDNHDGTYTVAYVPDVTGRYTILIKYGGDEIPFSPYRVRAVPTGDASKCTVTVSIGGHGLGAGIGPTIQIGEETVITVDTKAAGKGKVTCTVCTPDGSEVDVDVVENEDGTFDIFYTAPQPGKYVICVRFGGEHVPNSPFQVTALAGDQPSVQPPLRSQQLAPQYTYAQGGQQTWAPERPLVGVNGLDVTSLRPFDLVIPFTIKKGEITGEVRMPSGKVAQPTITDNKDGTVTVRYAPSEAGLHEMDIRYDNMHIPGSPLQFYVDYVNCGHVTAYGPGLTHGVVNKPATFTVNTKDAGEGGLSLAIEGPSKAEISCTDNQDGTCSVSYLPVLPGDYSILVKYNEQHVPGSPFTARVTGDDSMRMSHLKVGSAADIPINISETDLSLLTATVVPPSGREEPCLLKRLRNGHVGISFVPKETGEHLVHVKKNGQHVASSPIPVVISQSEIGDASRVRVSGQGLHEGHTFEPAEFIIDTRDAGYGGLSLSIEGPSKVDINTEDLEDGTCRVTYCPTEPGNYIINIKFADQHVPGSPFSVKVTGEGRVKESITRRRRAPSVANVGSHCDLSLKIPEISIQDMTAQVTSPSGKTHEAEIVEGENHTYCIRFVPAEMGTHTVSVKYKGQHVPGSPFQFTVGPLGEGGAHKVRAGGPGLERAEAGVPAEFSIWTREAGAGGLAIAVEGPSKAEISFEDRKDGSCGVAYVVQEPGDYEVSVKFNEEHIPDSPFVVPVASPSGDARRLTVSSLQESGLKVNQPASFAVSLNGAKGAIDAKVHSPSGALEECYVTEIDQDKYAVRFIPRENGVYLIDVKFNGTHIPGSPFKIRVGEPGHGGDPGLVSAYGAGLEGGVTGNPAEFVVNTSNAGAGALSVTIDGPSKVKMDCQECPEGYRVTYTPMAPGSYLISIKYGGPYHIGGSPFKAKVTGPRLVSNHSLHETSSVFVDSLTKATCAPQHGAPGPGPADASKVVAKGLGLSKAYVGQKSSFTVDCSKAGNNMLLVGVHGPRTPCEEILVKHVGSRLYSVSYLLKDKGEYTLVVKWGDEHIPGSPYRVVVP

Target: T1, Flag-RNase L (UniProt Q05823)
T1 sequence: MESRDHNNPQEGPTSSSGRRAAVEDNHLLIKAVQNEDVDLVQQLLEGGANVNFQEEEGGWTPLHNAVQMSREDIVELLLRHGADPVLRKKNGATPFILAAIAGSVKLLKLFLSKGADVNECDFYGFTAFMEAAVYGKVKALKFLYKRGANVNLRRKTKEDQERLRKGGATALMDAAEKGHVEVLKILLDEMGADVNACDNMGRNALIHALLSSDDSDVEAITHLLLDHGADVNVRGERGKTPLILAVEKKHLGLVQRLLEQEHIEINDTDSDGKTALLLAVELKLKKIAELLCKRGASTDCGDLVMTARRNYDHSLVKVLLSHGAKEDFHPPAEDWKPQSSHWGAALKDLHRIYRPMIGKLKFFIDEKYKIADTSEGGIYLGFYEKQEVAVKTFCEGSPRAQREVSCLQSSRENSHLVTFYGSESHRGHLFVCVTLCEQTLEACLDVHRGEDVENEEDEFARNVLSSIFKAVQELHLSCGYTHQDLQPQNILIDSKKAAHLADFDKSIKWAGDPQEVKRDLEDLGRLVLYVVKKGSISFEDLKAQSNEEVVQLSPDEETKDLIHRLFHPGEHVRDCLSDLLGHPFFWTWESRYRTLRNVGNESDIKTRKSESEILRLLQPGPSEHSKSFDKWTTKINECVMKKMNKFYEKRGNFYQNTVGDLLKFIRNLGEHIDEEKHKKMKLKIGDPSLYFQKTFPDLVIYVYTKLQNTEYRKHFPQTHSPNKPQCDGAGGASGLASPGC
Assay: co-IP; LNCaP cells expressing Flag-RNase L, untreated (vehicle); lysis in 0.5% NP-40, 90 mM KCl, 5 mM magnesium acetate, 20 mM Tris pH 7.5; Flag-M2 agarose beads or control IgG beads, 4 °C; Western blot for AR and FLNA; cells treated with R1881 (1 nM, 1 h or 24 h) showed reduced FLNA

Filamin A (from UniProt P21333 1-2647) was tested, and the binding was “binds”.
